About 2,100 (0.66%) of roughly 320,000 compounds were called active. The shares of active, inactive and inconclusive entries below differ from those in the screen. The call rests on the fitted dose curve; in most records, active means well fitted inhibition curve with a large enough effect in the signal ratio, with a control signal flat (not every such curve was filed as active); inconclusive means small, poorly fitted or top-dose-only effect, or effect the other way, or a change in a side signal; inactive means flat fitted curve, though single readings scatter; the % refers to the signal ratio. Potencies of inconclusive entries are doubtful fits and often do not repeat.
test: qHTS Assay for Lipid Storage Modulators in Drosophila S3 Cells; conditions: BODIPY lipid droplet fluorescence, 18-24 h, cells fed with added oleic acid; lipid storage change, negative = inhibition: at 46.1 µM (top of the series) unless noted
Summary of the method: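 Laser-scanning cytometry quantifies lipid droplet accumulation (500–530 nm total intensity; droplet/cell object ratio) in oleic acid-fed (400 uM added) Drosophila S3 cells treated with a concentration series. 20 uM Triacsin C defined 100% inhibition.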
On the % scale 0 is the no-effect control and ±100 the full control effect; potency means the concentration at half of the fitted maximal effect.

Compound | lipid storage change, negative = inhibition | Potency
NC(=S)N/N=C/c1ccccc1OCCSc1ccc(Cl)cc1 | inconclusive: -18.3% | 
COc1ccc(N(CC(=O)NCCC2=CCCCC2)S(=O)(=O)c2ccccc2)cc1 | inconclusive: -29% | 
COc1cccc(OC)c1/C(O)=C(\C#N)c1nc2ccccc2[nH]1 |  | inconclusive: 4.6 nM [falling, full curve, poor fit]
Cc1nn(-c2ccccc2)c(C)c1C(=O)OCC(=O)N1CC(=O)Nc2ccccc21 |  | inconclusive: 2590 nM [activator, full curve]
COc1ccccc1N1CCN(C(=O)C(=O)c2cn(CC(=O)N3CCCC3)c3ccccc23)CC1 | inactive | 
COc1ccc(CN2CCNC(=O)C2CC(=O)N(C)Cc2ccon2)c(F)c1 (centres undefined) | inconclusive: 19.5% | 
COCCN(C(=O)COC(=O)CCc1ccccc1OC)c1c(N)n(Cc2ccccc2)c(=O)[nH]c1=O | inconclusive: 22.7% | 
CCCC(C)C(=O)OCC(=O)Nc1ccc(Br)cc1 (centres undefined) | inconclusive: 13.3% | 
Nc1nc(SCC(=O)N2CCN(c3ccc(F)cc3)CC2)n[nH]1 |  | inconclusive: 231 nM [falling, full curve, poor fit]
CC(=O)c1cccc(NC(=O)CSCc2ccccc2)c1 | inconclusive: -26.7% | 
CC(CCc1ccccc1)NC(=O)COC(=O)C1=COCCO1 (centres undefined) | inconclusive: -0.0433% | 
O=C(O)CCC(=O)NNC(=O)CCC(=O)NCc1ccccc1 | inconclusive: 6.76% | 
C=C(C)CN(CC)C(=O)CC1C(=O)NCCN1CC(C)(C)C (centres undefined) | inconclusive: -10.9% | 
COc1cc(NC(=S)NCc2cccs2)cc(OC)c1 |  | inconclusive: 82 nM [activator, full curve, poor fit]
N#CC(c1ccc(F)cc1)c1ccc(C(=O)c2ccc(F)cc2)cc1 (centres undefined) | inconclusive: -25.8% | 
Cc1ccc(N(CC(=O)NC2CCCCCC2)S(=O)(=O)c2c(C)nn(C)c2C)cc1 | inconclusive: 29.7% | 
O=C(CN1C(=O)NC2(CCCCC2)C1=O)Nc1ccccc1N1CCCCC1 |  | inconclusive: 259 nM [falling, partial curve, poor fit]
COc1ccc(C(=O)CSc2nnc(C3CC3)n2N)cc1 | inactive | 
Cc1ccc(Nc2c(-c3ccccn3)nc3ccc(C)cn23)cc1 |  | inconclusive: 231 nM [falling, full curve]
O=C(COC(=O)c1cc(S(=O)(=O)N2CCOCC2)ccc1F)Nc1ccc(Cl)cn1 | inconclusive: 21% | 
Cc1ccc(SCC(=O)NCc2ccc(F)cc2)cc1 | inconclusive: -22.4% [at 9.22 µM] | 
CN1CCN(/C=C2\SC(=S)NC2=O)CC1 | inconclusive: -12.9% | 
Fc1ccc(C2CCCN2Cc2nc(Cc3ccccc3)no2)cc1 (centres undefined) | inconclusive: 26.9% | 
COc1ccc(/C(O)=C2/C(=O)C(=O)N(CCCC(=O)O)C2c2ccc(OC)c(OC)c2)cc1 (centres undefined) | inconclusive: -7.04% | 
CC(C(=O)N1CCCc2c1c(=O)oc1ccc(O)cc21)N1CCc2ccccc2C1 (centres undefined) |  | inconclusive: 920 nM [falling, partial curve]

Compound | lipid storage change, negative = inhibition | Potency
CCCCCn1c(CN2CCN(C)CC2)nc2c1c(=O)n(C)c(=O)n2C | inconclusive: 17.5% [at 9.22 µM] | 
O=C(NC1CC1)c1cc(-c2ccco2)nc2ccccc12 | inconclusive: 18.2% | 
c1cncc(CNc2cccc(-c3nc4ccccc4[nH]3)c2)c1 | inconclusive: 0.393% | 
COc1ccc(OC)c(NC(=S)N(CCc2c(C)[nH]c3ccccc23)Cc2cccs2)c1 |  | inconclusive: 1640 nM [activator, full curve]
O=C(Nc1ccc(C(=O)N2CCN(c3ccccn3)CC2)cc1)c1ccc(Br)o1 | inconclusive: 0.888% | 
CCn1c(CNc2cccc(Cl)c2)nnc1SCc1ccccc1 | inconclusive: 40.7% | 
CCCOC(=O)c1ccc(O)cc1 | inconclusive: 7.87% | 
C=CCn1c(CCNC(=O)c2cccs2)n[nH]c1=S | inconclusive: 30.8% | 
COc1cc(CCC(=O)Nc2sccc2C#N)cc(OC)c1OC | inconclusive: -57.1% | 
CC(C)C(=O)Nc1cccc(NC(=O)c2ccc(Cl)cc2Cl)c1 | inconclusive: 1.9% | 
COc1ccc(S(=O)(=O)N2CCOCC2)cc1NC(=O)CSc1n[nH]c(C(C)C)n1 | inconclusive: -1.54% | 
CCOc1ccc(C(=O)NNC(=O)CCNC(=O)c2ccc(Br)cc2)cc1OC |  | inconclusive: 29100 nM [activator, single point]
C/C=C/c1ccc(OCC(=O)Nc2ccncc2)c(OC)c1 |  | inconclusive: 13000 nM [falling, single point]
COc1ccc(S(=O)(=O)N2CCc3ccccc32)cc1C(=O)OCc1nnc(-c2ccccc2)o1 |  | inconclusive: 6510 nM [activator, single point]
CCc1ccc(N(CC(=O)NC2CCCC2)C(=O)CCC(=O)Nc2ccccn2)cc1 | inconclusive: 32% | 
CCOc1ccc(NC(=O)Cn2c(=O)n(CCCC(=O)NC3CCN(Cc4ccccc4)CC3)c(=O)c3ccccc32)cc1 | inconclusive: 78.6% | 
O=C(NC1=NCCS1)c1ccc(Cl)c(S(=O)(=O)N2CCCCCC2)c1 | inconclusive: 21.5% | 
CCN1CCN(C(=O)C2CC(=O)N(c3ccc(Cl)cc3)C2)CC1 (centres undefined) |  | inconclusive: 29100 nM [activator, single point]
COc1cccc(CN2C(=O)C(C)Oc3ccccc32)c1 (centres undefined) | inconclusive: 22.6% | 
CC(C)N(Cc1nc(-c2ccccc2)no1)C(=O)c1ccc(Cl)cc1 |  | inconclusive: 2310 nM [activator, single point]
O=C(CCCC(=O)n1cnc2ccccc21)n1cnc2ccccc21 | inconclusive: -32.8% | 
Cc1cccc(C)c1N=Cc1c(C(F)(F)F)[nH][nH]c1=O | inconclusive: -45.4% | 
Cc1cc(C(=O)CN2C(=O)NC3(CCCc4ccccc43)C2=O)c(C)n1Cc1cccs1 (centres undefined) |  | inconclusive: 18400 nM [rising, partial curve]
CC(C)(C)C1CCC(C(=O)Nc2ccccc2)CC1 (centres undefined) |  | inconclusive: 731 nM [falling, partial curve, poor fit]

Ordered by heavy-atom count (ascending): part of the list above
Compound | lipid storage change, negative = inhibition | Potency
CCCCCn1c(CN2CCN(C)CC2)nc2c1c(=O)n(C)c(=O)n2C | inconclusive: 17.5% [at 9.22 µM] | 
CCc1ccc(N(CC(=O)NC2CCCC2)C(=O)CCC(=O)Nc2ccccn2)cc1 | inconclusive: 32% | 
COc1ccc(OC)c(NC(=S)N(CCc2c(C)[nH]c3ccccc23)Cc2cccs2)c1 |  | inconclusive: 1640 nM [activator, full curve]
